Experiment [1] addresses 3xFLAG-tagged ING3, wild type (human) (UniProt Q9NXR8). The experiment is described as follows: co-IP; HEK293T transfected with FLAG-tagged ING3 constructs; α-FLAG immunoprecipitates blotted with α-TIP49A.
Experiment [2] deals with 3xFLAG-tagged ING3 W385A (human) (UniProt Q9NXR8). Described as above.
The target in experiment [3] is 3xFLAG-tagged ING3 Y362A (human) (UniProt Q9NXR8). Described as above.
For experiment [4], the target named is 3xFLAG-tagged ING3, wild type (human) (UniProt Q9NXR8). Nature of the experiment: co-IP; FLAG-ING3 and YFP-HDAC1 co-expressed in HEK293T; immunoprecipitated with α-FLAG M2 agarose, blotted with α-GFP.
Experiment [5] addresses ING3 in LNCaP cells (human) (UniProt Q9NXR8). The experiment is described as follows: co-IP; LNCaP cells, mild immunoprecipitation conditions; no figure shown.

By UniProt entry, the sequences of proteins in these tests, tags left out.
UniProt Q9Y265: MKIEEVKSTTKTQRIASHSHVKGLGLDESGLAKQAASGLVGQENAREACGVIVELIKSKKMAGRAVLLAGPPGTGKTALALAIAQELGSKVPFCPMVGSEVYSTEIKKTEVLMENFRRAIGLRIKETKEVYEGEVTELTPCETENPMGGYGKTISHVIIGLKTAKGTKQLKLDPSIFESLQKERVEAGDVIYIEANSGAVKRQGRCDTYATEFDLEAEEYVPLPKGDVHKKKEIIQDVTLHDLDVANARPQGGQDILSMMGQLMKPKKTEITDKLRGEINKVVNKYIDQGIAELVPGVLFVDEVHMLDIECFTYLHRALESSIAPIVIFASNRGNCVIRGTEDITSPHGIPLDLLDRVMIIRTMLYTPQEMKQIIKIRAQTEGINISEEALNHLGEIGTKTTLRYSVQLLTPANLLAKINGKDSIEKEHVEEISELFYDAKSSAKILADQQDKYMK
UniProt Q13547: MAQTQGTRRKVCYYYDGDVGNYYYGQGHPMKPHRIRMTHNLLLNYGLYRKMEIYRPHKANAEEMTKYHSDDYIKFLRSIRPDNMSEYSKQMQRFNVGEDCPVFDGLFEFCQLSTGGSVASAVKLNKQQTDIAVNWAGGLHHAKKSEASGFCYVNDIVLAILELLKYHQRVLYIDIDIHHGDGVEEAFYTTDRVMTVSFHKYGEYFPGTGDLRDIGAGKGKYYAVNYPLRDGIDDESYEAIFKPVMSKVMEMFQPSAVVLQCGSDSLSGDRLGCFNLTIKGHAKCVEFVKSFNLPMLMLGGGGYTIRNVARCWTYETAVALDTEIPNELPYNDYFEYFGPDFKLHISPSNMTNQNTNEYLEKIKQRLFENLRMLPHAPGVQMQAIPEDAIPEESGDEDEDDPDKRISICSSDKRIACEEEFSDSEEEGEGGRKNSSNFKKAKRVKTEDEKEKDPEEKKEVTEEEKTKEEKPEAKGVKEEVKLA

No constants are given. Whether binding was seen depends on the method and setting. Binding seen in cells or lysates may run through a third protein. Some results given as binding are weak or reduced against the parent protein; the word gives no strength.

With TIP49A (from UniProt Q9Y265 1-456), the binding result in experiment [1], in experiment [2] and in experiment [3] was “binds” each time.
For the substance “YFP-HDAC1 (from UniProt Q13547 1-482) (enzyme)”, in experiment [4], the binding result was “binds”.
With “p53 in LNCaP cells (from UniProt P04637 1-393)”, in experiment [5], the binding entry is listed as “no binding”.

For the origin of these results see article PMC5846061.
